Measured values: the supplement of paper PMC7877785
± gives the uncertainty stated by the source. Many entries were measured with a wide error.

Assay: self-splicing fitness, log relative to wild type (ln ratio); higher = more splicing; Tetrahymena group I intron in knt gene, E. coli kanamycin selection, DiMSum; sequences stand for … in CUCUCU…GGAGGGAAAAGUUAUCAGGCAUGCACCUGGUAGCUAGUCUUUAAACCAAUAGAUUGCAUCGGUUUAAAAGGCAAGACCGUCAAAUUGCGGGAAAGGGGUCAACAGCCGUUCAGUACCAAGUCUCAGGGGAAACUUUGAGAUGGCCUUGCAAAGGGUAUGGUAAUAAGCUGACGGACAUGGUCCUAACCACGCAGCCAAGUCCUAAGUCAACAGAUCUUCUGUUGAUAUGGAUGCAGUUCACAGACUAAAUGUCGGUCGGGGAAGAUGUAUUCUUCUCAUAAGAUAUAGUCGGACCUCUCCUUAAUGGGAGCUAGCGGAUGAAGUGAUGCAACACUGGAGCCGCUGGGAACUAAUUUGUAUGCGAAAGUAUAUUGAUUAGUUUUGGAGUACUCGUGGUCG
Summary of the method: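 Colonies from six replicate transformations of E. coli BL21(DE3) were pooled and amplicon-sequenced on an Illumina HiSeq 2500. The library placed an intron with all eight P1ex-region nucleotides randomised inside the knt kanamycin-resistance gene on pET-22b(+), and cells grew overnight at 37°C or 30°C on LB agar with or without 25 μg/mL kanamycin (plus 100 μg/mL carbenicillin, 50 μM IPTG, 0.2% rhamnose). Fitness is the DiMSum error-weighted combination of wild-type-normalised replicate fold changes, kanamycin versus none.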

## CUUCAGCAAUAUUACGUGCC
37 °C
  self-splicing fitness (ln): -3.49 ± 1

## UGUUAGCAAUAUUACGAAGA
30 °C
  self-splicing fitness (ln): -3.26 ± 0.66

## CCAGAGCAAUAUUACGCCUU
30 °C
  self-splicing fitness (ln): -3.57 ± 0.25
37 °C
  self-splicing fitness (ln): -2.37 ± 0.25

## GGAGAGCAAUAUUACGGAAA
30 °C
  self-splicing fitness (ln): -2.33 ± 0.78
37 °C
  self-splicing fitness (ln): -2.91 ± 0.59

## GAGGAGCAAUAUUACGCCGC
30 °C
  self-splicing fitness (ln): -3.42 ± 1
37 °C
  self-splicing fitness (ln): -3.39 ± 1

## CGGAAGCAAUAUUACGCUGA
30 °C
  self-splicing fitness (ln): -3.47 ± 0.61

## UCGAAGCAAUAUUACGACUA
30 °C
  self-splicing fitness (ln): -1.05 ± 0.16
37 °C
  self-splicing fitness (ln): -0.97 ± 0.13

## UCAGAGCAAUAUUACGAGAC
30 °C
  self-splicing fitness (ln): -1.52 ± 0.61
37 °C
  self-splicing fitness (ln): -2.4 ± 0.77

## UCUUAGCAAUAUUACGCCCA
30 °C
  self-splicing fitness (ln): -2.47 ± 1.1

## GCCGAGCAAUAUUACGAACG
37 °C
  self-splicing fitness (ln): -1.28 ± 0.54

## GAAUAGCAAUAUUACGAGGG
30 °C
  self-splicing fitness (ln): -3.39 ± 0.18
37 °C
  self-splicing fitness (ln): -3.25 ± 0.19

## UGAGAGCAAUAUUACGGCAG
30 °C
  self-splicing fitness (ln): -3.39 ± 0.61

## CAUAAGCAAUAUUACGCAAC
30 °C
  self-splicing fitness (ln): -4.16 ± 0.59
37 °C
  self-splicing fitness (ln): -3.24 ± 0.52

## GUCGAGCAAUAUUACGCUGA
30 °C
  self-splicing fitness (ln): -2.74 ± 0.68

## CAGUAGCAAUAUUACGAAUG
30 °C
  self-splicing fitness (ln): -1.36 ± 0.1
37 °C
  self-splicing fitness (ln): -0.492 ± 0.11

## GUGUAGCAAUAUUACGCGAC
30 °C
  self-splicing fitness (ln): -1.33 ± 0.45
37 °C
  self-splicing fitness (ln): -1.02 ± 0.27

## UCUAAGCAAUAUUACGCUCU
30 °C
  self-splicing fitness (ln): -3.32 ± 0.47
37 °C
  self-splicing fitness (ln): -2.58 ± 0.41

## CUCGAGCAAUAUUACGCUGU
30 °C
  self-splicing fitness (ln): -4.52 ± 0.72

## AUAUAGCAAUAUUACGGAGA
30 °C
  self-splicing fitness (ln): -3.84 ± 0.75

## CUGAAGCAAUAUUACGCAUU
30 °C
  self-splicing fitness (ln): -2.24 ± 0.12
37 °C
  self-splicing fitness (ln): -2.45 ± 0.17

## CAGCAGCAAUAUUACGGACC
30 °C
  self-splicing fitness (ln): -3.25 ± 0.54

## CUGAAGCAAUAUUACGAAAC
37 °C
  self-splicing fitness (ln): -3.16 ± 0.53

## GUGUAGCAAUAUUACGCAAA
30 °C
  self-splicing fitness (ln): -1.52 ± 1.2
37 °C
  self-splicing fitness (ln): -1.95 ± 0.57

## AUGGAGCAAUAUUACGAUCG
30 °C
  self-splicing fitness (ln): -4.05 ± 0.6
37 °C
  self-splicing fitness (ln): -1.1 ± 0.42

## CUUCAGCAAUAUUACGACCA
30 °C
  self-splicing fitness (ln): -2.6 ± 0.55
37 °C
  self-splicing fitness (ln): -0.184 ± 0.74

## ACGAAGCAAUAUUACGCCUG
30 °C
  self-splicing fitness (ln): -0.445 ± 0.095
37 °C
  self-splicing fitness (ln): 0.217 ± 0.12

## UGUUAGCAAUAUUACGACUA
30 °C
  self-splicing fitness (ln): 0.407 ± 0.22
37 °C
  self-splicing fitness (ln): -0.164 ± 0.19

## UUGGAGCAAUAUUACGGUAC
30 °C
  self-splicing fitness (ln): -3.08 ± 0.53
37 °C
  self-splicing fitness (ln): -3.25 ± 0.6

## AGAUAGCAAUAUUACGAAGC
30 °C
  self-splicing fitness (ln): -2.62 ± 0.62

## UCUUAGCAAUAUUACGGAAA
30 °C
  self-splicing fitness (ln): -0.692 ± 0.56
37 °C
  self-splicing fitness (ln): -2.19 ± 0.78

## GGGAAGCAAUAUUACGUCAC
30 °C
  self-splicing fitness (ln): -3.08 ± 0.2
37 °C
  self-splicing fitness (ln): -1.77 ± 0.19

## AGCGAGCAAUAUUACGCACA
30 °C
  self-splicing fitness (ln): -2.76 ± 0.29
37 °C
  self-splicing fitness (ln): -1.06 ± 0.18

## GUCGAGCAAUAUUACGAAAU
30 °C
  self-splicing fitness (ln): -0.828 ± 1

## GGGGAGCAAUAUUACGAAUA
30 °C
  self-splicing fitness (ln): -2.09 ± 0.57
37 °C
  self-splicing fitness (ln): -2.48 ± 1.1

## UACCAGCAAUAUUACGUGUC
30 °C
  self-splicing fitness (ln): -2.04 ± 0.1
37 °C
  self-splicing fitness (ln): -2.23 ± 0.15

## GAAUAGCAAUAUUACGACGU
30 °C
  self-splicing fitness (ln): -0.363 ± 0.11
37 °C
  self-splicing fitness (ln): 0.265 ± 0.13

## UCGGAGCAAUAUUACGAUGC
37 °C
  self-splicing fitness (ln): 0.406 ± 1.2

## UUUGAGCAAUAUUACGGCCA
30 °C
  self-splicing fitness (ln): -2.36 ± 1.2

## CAGGAGCAAUAUUACGCGGA
37 °C
  self-splicing fitness (ln): -4.43 ± 0.59

## GAACAGCAAUAUUACGAACA
30 °C
  self-splicing fitness (ln): -0.908 ± 0.1
37 °C
  self-splicing fitness (ln): -0.166 ± 0.12

## CAUUAGCAAUAUUACGACCC
30 °C
  self-splicing fitness (ln): -3.85 ± 0.74
37 °C
  self-splicing fitness (ln): -1.29 ± 0.69

## CCGGAGCAAUAUUACGAGGA
30 °C
  self-splicing fitness (ln): -4.29 ± 1

## UCAGAGCAAUAUUACGAAUC
37 °C
  self-splicing fitness (ln): -2.33 ± 0.78

## GUCAAGCAAUAUUACGUUAC
30 °C
  self-splicing fitness (ln): -3.02 ± 0.17
37 °C
  self-splicing fitness (ln): -2.96 ± 0.17

## CCUAAGCAAUAUUACGCUUC
37 °C
  self-splicing fitness (ln): -3.11 ± 0.61

## UAAGAGCAAUAUUACGUGAU
30 °C
  self-splicing fitness (ln): -4.21 ± 0.34
37 °C
  self-splicing fitness (ln): -2.43 ± 0.35

## ACUGAGCAAUAUUACGGGAG
30 °C
  self-splicing fitness (ln): -3.29 ± 0.2
37 °C
  self-splicing fitness (ln): -2.74 ± 0.2

## CACUAGCAAUAUUACGCUAA
30 °C
  self-splicing fitness (ln): -3.33 ± 0.3
37 °C
  self-splicing fitness (ln): -1.75 ± 0.19

## AGAGAGCAAUAUUACGAAGU
30 °C
  self-splicing fitness (ln): -3.06 ± 0.76
37 °C
  self-splicing fitness (ln): -2.56 ± 0.76

## UCGAAGCAAUAUUACGCUCC
37 °C
  self-splicing fitness (ln): -1.84 ± 1.1

## AUUAAGCAAUAUUACGGUGC
37 °C
  self-splicing fitness (ln): -3.29 ± 0.6

## GCGAAGCAAUAUUACGAGGA
30 °C
  self-splicing fitness (ln): -3.45 ± 0.53

## CCGCAGCAAUAUUACGUGCU
37 °C
  self-splicing fitness (ln): -3.49 ± 0.52

## CAUAAGCAAUAUUACGCUAC
30 °C
  self-splicing fitness (ln): -4.24 ± 0.73

## GGUCAGCAAUAUUACGAUCC
30 °C
  self-splicing fitness (ln): -5.28 ± 0.51
